# Measurements: PubChem BioAssay AID662 (National Center for Advancing Translational Sciences (NCATS), 2007)
# Some of the results follow. Further columns of the screen follow, without active or inactive calls. Compounds called inactive in the main read-out are mostly missing here. Potencies come from curve fits of mixed quality, noted in brackets.
# Assay: Cell signaling CRE-BLA (Fsk stim)
# Conditions: CHO CRE-bla reporter (cAMP response element driving beta-lactamase), forskolin EC10, beta-lactamase ratio; measured here: 460 nm blue channel
# In short: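 Reporter-gene assay: CHO cells with beta-lactamase behind cAMP responsive elements, co-treated with compound and EC10 NKH 477 for 3 hours at 37 degrees Celsius. Activity came from the 460/530 nm CCF4 emission ratio.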
row,Compound,AC50
1,COc1ccc(-n2c(=O)c(-c3ccccc3)nc3cnc(N4CCOCC4)nc32)cc1,"2.51 µM [rising, full curve]"
2,CCOC(=O)C(C)Sc1nnc(CNC(=O)c2ccc(OC)cc2)n1C1CCCCC1 (stereo unspecified),"0.0316 µM [rising, full curve, poor fit]"
3,Cc1cccc(N2CCN(C(=O)c3cn(C)c(=O)c4c3c3ccccc3n4C)CC2)c1C,"0.316 µM [falling, full curve, poor fit]"
4,O=C(NC1CCCCC1)c1cc2nc3c(c(C(F)(F)F)n2n1)CCCC3,"12.6 µM [rising, partial curve]"
5,Cc1cc(C)c2cc(CN(CCO)Cc3nnnn3Cc3ccccc3)c(=O)[nH]c2c1,"12.6 µM [falling, partial curve]"
6,COCCNC(=O)CCSCc1ccccc1F,"12.6 µM [falling, single point]"
7,CCOC(=O)Nc1ccc2c(c1)N(C(=O)N(C)C)c1ccccc1CC2,"1.26 µM [rising, partial curve]"
8,COc1cc(C(=O)OCC(=O)NC2CCCC2)cc(NC(=O)c2ccco2)c1OC,"0.126 µM [falling, full curve, poor fit]"
9,O=C(CN1C(=O)NC2(CCCCCCC2)C1=O)N1CCOCC1,"3.98 µM [falling, partial curve]"
10,COc1ccc(C2C(C(=O)c3sc(C)nc3C)=C(O)C(=O)N2CCCn2ccnc2)cc1 (stereo unspecified),"25.1 µM [rising, single point]"
11,N#Cc1nc(-c2ccc(F)cc2)oc1NCc1cccc2c1OCO2,"12.6 µM [rising, partial curve]"
12,CCOC(=O)c1ccc(NS(=O)(=O)c2c(C)n(C)c(=O)n(C)c2=O)cc1,"10 µM [rising, single point]"
13,CC(C)(C)c1ccc(O)c(CN(Cc2cc(C(C)(C)C)ccc2O)c2ccccc2)c1,"5.01 µM [rising, single point]"
14,CS(=O)(=O)Nc1cccc(-c2nc(NCc3cccnc3)c3ccccc3n2)c1,"3.16 µM [rising, full curve]"
15,c1ccc(Nc2ncnc3c2oc2ccccc23)cc1,"10 µM [rising, single point]"
16,COCCNc1ncnc2ccc(-c3cccc(NS(C)(=O)=O)c3)cc12,"0.158 µM [rising, full curve, poor fit]"
17,COc1cc(C(=O)Nc2cc(C)c(OCC(=O)N3CCOCC3)c(C)c2)cc(OC)c1OC,"10 µM [rising, partial curve]"
18,CCn1c(=O)cc(SCC(=O)NCc2ccccn2)c2ccccc21,"10 µM [rising, partial curve]"
19,CCS(=O)(=O)Nc1ccc(Cc2ccncc2)cc1,"2.51 µM [falling, partial curve]"
20,Cc1ccc(C(=O)N2CCN(C(=O)CN3CCOCC3)C2)cc1,"0.501 µM [rising, full curve]"
21,CCOC(=O)c1ccc(NS(=O)(=O)c2ccc3[nH]c(=O)[nH]c3c2)cc1,"0.631 µM [rising, full curve, poor fit]"

# As entered above:
# AC50, CCOC(=O)C(C)Sc1nnc(CNC(=O)c2ccc(OC)cc2)n1C1CCCCC1 (stereo unspecified) is entered as 0.0316 µM [rising, full curve, poor fit]
# AC50, COc1ccc(-n2c(=O)c(-c3ccccc3)nc3cnc(N4CCOCC4)nc32)cc1 is entered as 2.51 µM [rising, full curve]

# Remaining list, next part.

row,Compound,AC50
1,O=C1C2C3C=CC(CO)(O3)C2C(=O)N1c1ccccc1-c1ccccc1 (stereo unspecified),"1 µM [falling, full curve]"
2,CC1C2CC(CC1(C)C)N(C(=O)Nc1ccc3nccnc3c1)C2 (stereo unspecified),"25.1 µM [rising, single point]"
3,CCOC(=O)C1CCN(S(=O)(=O)c2ccc(-n3cnnn3)c(C)c2)CC1,"5.01 µM [falling, single point]"
4,O=C(Oc1cccc(N2C(=O)CCC2=O)c1)C1CC(=O)N(c2ccc(F)cc2)C1 (stereo unspecified),"15.8 µM [falling, partial curve]"
5,O=C(CC1Nc2ccccc2NC1=O)c1ccccc1 (stereo unspecified),"20 µM [rising, single point]"
6,COCCN1C=C(C(=O)OC)C(c2ccc3c(c2)OCO3)C(C(=O)OC)=C1,"12.6 µM [rising, single point]"
7,O=C(O)c1ccc2c(c1)nnn2C1CCCCC1,"3.16 µM [rising, single point]"
8,N#C/C(=C\c1ccc(O)c(O)c1)C(=O)NCCc1ccccc1,"7.94 µM [falling, full curve, poor fit]"
9,Fc1cccc2sc(Nc3nnc(-c4ccccc4)o3)nc12,"2 µM [falling, full curve]"
10,Cc1nc2c(cc(Oc3ccc(S(=O)(=O)N4CCOCC4)cn3)c3ccsc32)s1,"10 µM [rising, partial curve]"
11,CN(c1cc(=O)n2ccccc2n1)C1CCCCC1,"3.16 µM [rising, single point]"
12,O=c1cc(-c2ccccc2)[nH]c2nc(Cl)ccc12,"12.6 µM [rising, single point]"
13,COC(=O)c1c(-c2cccnc2)csc1NC(=O)c1cc(C)on1,"2.51 µM [rising, full curve]"
14,CN(C)c1ncc2nc(CCc3ccccc3)c(=O)n(CCc3ccccc3)c2n1,"5.01 µM [rising, partial curve]"
15,COC(=O)c1cccc(NC(=O)C2COc3ccccc3O2)c1 (stereo unspecified),"0.00398 µM [falling, full curve, poor fit]"
16,CC[C@H](C)[C@@H]1O[C@]2(CC[C@@H]1C)C[C@H]1C[C@H](CC=C(C)[C@@H](O[C@@H]3C[C@H](OC)[C@H](O[C@@H]4C[C@H](OC)[C@H](O)[C@H](C)O4)[C@H](C)O3)[C@@H](C)C=CC=C3CO[C@@H]4[C@@H](O)C(C)=C[C@@H](C(=O)O1)[C@]34O)O2,"12.6 µM [falling, single point]"
17,C=CCNC(=O)c1c(N)n(-c2ccc3c(c2)OCO3)c2nc3ccccc3nc12,"0.398 µM [rising, full curve]"
18,c1ccc(-c2noc(-c3cccnc3)n2)nc1,"25.1 µM [rising, single point]"
19,CCN1c2ccccc2NC2C1C(C(C)=O)C(=O)N2c1ccc(Cl)cc1 (stereo unspecified),"12.6 µM [rising, partial curve]"
20,Cc1ccc(-c2nc(CN(C)C)cc(CN(C)C)c2O)cc1,"25.1 µM [rising, single point]"
